For some assays here: At least one structure is not confirmed: it was looked up by name or label, or the drawing left a doubt. Some compounds share one wording; it may come from a single statement. Some entries share one result that the patent states for a list of compounds.
Legend:
A549 cells = test: Cell proliferation assay (CellTiter-Glo), K-Ras G12S cells; assay type: cell-based; details: G12D cell line such as GP2D relative to G12S cell line such as A549
Protocol: A549 (ATCC CRL-185) and LS123 (ATCC CRL-255) cell lines comprise a G12S mutation and can be used to assess Ras cellular signaling in vitro, e.g., in response to the compounds herein. A549 culture medium is prepared with RPMI-1640 and 10% heat-inactivated FBS. LS123 culture medium is prepared with RPMI-1640 and 10% heat-inactivated FBS. A CellTiter-Glo (CTG) luminescent based assay (Promega) is used to assess growth of the cells, as a measurement of the ability of the compounds herein to inhibit Ras signaling in the cells. The cells (e.g., 800 per well) are seeded in their respective culture medium in standard tissue culture-treated 384-well format plates (Falcon #08-772-116) or ultra-low attachment surface 384-well format plates (S-Bio #MS-9384WZ). The day after plating, cells are treated with a dilution series (e.g., a 10 point 3-fold dilution series) of the compounds herein (e.g., approximately 40 μl final volume per well). Cell viability can be monitored (e.g., approximately 6 days later) according to the manufacturer's recommended instructions, where the CellTiter-Glo reagent is added (e.g., approximately 10 μl), vigorously mixed, covered, and placed on a plate shaker (e.g., approximately for 20 min) to ensure sufficient cell lysis prior to assessment of luminescent signal. The IC50 values are determined using the four parameter fit. The resulting IC50 value is a measurement of the ability of the compounds herein to reduce cell growth of Ras-driven cells (e.g., tumor cell lines) in vitro and/or in vivo.

[1] = target: T1, KRAS G12D 1-169 (His-tagged, GDP-loaded) (Homo sapiens, UniProt P01116, G12D); test: Covalent modification of KRAS protein by intact-protein LC-MS; assay type: binding; details: comparable or same conditions as K-Ras G12S
T1 construct: His -tagged GDP-loaded G12D 1-169; made in house; host or cells: E. coli, e.g. BL21 (DE3)
Protocol: Test compounds are prepared as 10 mM stock solutions in DMSO (Fisher cat #BP231-100). KRAS protein (His -tagged GDP-loaded wildtype 1-169, His -tagged GDP-loaded G12S 1-169 or His -tagged GDP-loaded G12D 1-169) is diluted to ˜2 μM in appropriate buffer (e.g., a Hepes buffer at physiological conditions). For testing KRAS modification, compounds are diluted to 50× final test concentration in DMSO in 96-well storage plates. 2 μl of the diluted 50× compounds are added to appropriate wells in the PCR plate (Fisher cat #AB-0800). ˜49 μl of the stock protein solution is added to each well of the 96-well PCR plate. Reactions are mixed carefully. The plate is sealed well with aluminum plate seal, and stored in drawer at room temperature for 24 hrs. 5 μl of 2% formic acid (Fisher cat #A117-50) in MilliQ H2O is then added to each well followed by mixing with a pipette. The plate is then resealed with aluminum seal and stored until mass spectrometry analysis.
The extent of covalent modification of KRAS proteins was determined by liquid chromatography electrospray mass spectrometry analysis of the intact proteins on a Thermo Q-Exactive Plus mass spectrometer. 20 μl of sample was injected onto a bioZen 3.6 μm Intact C4 column (Phenomenex cat #00B-4767-AN) placed in a column oven set to 40° C. and separated using a suitable LC gradient from ˜20% to ˜60% solvent B. Solvent A was 0.1% formic acid and solvent B was 0.1% formic acid in acetonitrile. HESI source settings were set to 40, 5 and 1 for the sheath, auxiliary and sweep gas flow, respectively. The spray voltage was 4 kV, and the capillary temperature was 320° C. S-lens RF level was 50 and auxiliary gas heater temperature was set to 200° C. The mass spectrometry was acquired using a scan range from 650 to 1750 m/z using positive polarity at a mass resolution of 70,000, AGC target of 1e6 ions and maximum injection time of 250 ms. The recorded protein mass spectrum was deconvoluted from the raw data file using Protein Deconvolution v4.0 (Thermo). The protein mass and adduct masses were exported with their peak intensities. The peak intensities for the unmodified and modified protein were used to calculate the percent covalent modification of the KRAS protein based on the following equation: % KRAS protein modification=((KRAS−compound)/(KRAS)+(KRAS−Compound))*100.

Q: How did the “ratio of IC50 against a G12D cell line to IC50 against a G12S cell line” value (“ratio of IC50 against a G12D cell line” below) (A549 cells) turn out when `Cc1ncn(C(=O)N2CC3(CCCN(c4nc(OC[C@@]56CCCN5C[C@H](F)C6)nc5c(F)c(-c6ccc(F)c7sc(N)c(C#N)c67)c(Cl)cc45)C3)C2)n1` [Compound A102, 2-amino-4-(6-chloro-8-fluoro-2-(((2R,7aS)-2-fluorotetrahydro-1H-pyrrolizin-7a(5H)-yl)meth-oxy)-4-(2-(3-methyl-1H-1,2,4-triazole-1-carbonyl)-2,6-diaza-spiro[3.5]nonan-6-yl)quinazo-lin-7-yl)-7-fluorobenzo[b]-thiophene-3-carbonitrile] was run?
A: greater than 1 fold

Q: For `N#Cc1c(N)sc2c(F)ccc(-c3c(Cl)cc4c(N5CCC6C5CCCN6C(=O)n5cncn5)nc(OC[C@@]56CCCN5C[C@H](F)C6)nc4c3F)c12` (stereo partly drawn) [Compound A152, 4-(4-(4-(1H-1,2,4-triazole-1-carbonyl)octahydro-1H-pyrrolo[3,2-b]pyridin-1-yl)-6-chloro-8-fluoro-2-(((2R,7aS)-2-fluorotetrahydro-1H-pyrrolizin-7a(5H)-yl)methoxy)quinazolin-7-yl)-2-amino-7-fluorobenzo-[b]thiophene-3-carbonitrile], which “ratio of IC50 against a G12D cell line” value (A549 cells) is on record?
A: greater than 1 fold

Q: With `N#Cc1c(N)sc2c(F)ccc(-c3c(Cl)cc4c(N5CCC6CN(C(=O)Nc7ncccn7)CCC65)nc(OC[C@@]56CCCN5C[C@H](F)C6)nc4c3F)c12` (stereo partly drawn) [Compound A251, 1-(7-(2-amino-3-cyano-7-fluorobenzo[b]thiophen-4-yl)-6-chloro-8-fluoro-2-(((2R,7aS)-2-fluorotetrahydro-1H-pyrrolizin-7a(5H)-yl)methoxy)quinazolin-4-yl)-N-(pyrimidin-2-yl)octa-hydro-5H-pyrrolo[3,2-c]pyr-idine-5-carboxamide (first single octahydro-5H-pyrrolo-[3,2-c]pyridine diastereomer)] as the molecule, how does the “ratio of IC50 against a G12D cell line” value (A549 cells) read?
A: greater than 1 fold

Q: How did the “ratio of IC50 against a G12D cell line” value (A549 cells) turn out when `N#Cc1c(N)sc2c(F)ccc(-c3c(Cl)cc4c(N5CC(F)(F)C6(CN(C(=O)n7cncn7)C6)C5)nc(OC[C@@]56CCCN5C[C@H](F)C6)nc4c3F)c12` [Compound A199, 2-amino-4-(6-chloro-4-(8,8-difluoro-2-(1H-1,2,4-triazole-1-carbonyl)-2,6-diazaspiro[3.4]-octan-6-yl)-8-fluoro-2-(((2R,7aS)-2-fluorotetrahydro-1H-pyrrolizin-7a(5H)-yl)meth-oxy)quinazolin-7-yl)-7-fluoro-benzo[b]thiophene-3-carbonitrile] was run?
A: greater than 1 fold

Q: With `C#Cc1c(F)ccc2cc(O)cc(-c3ncc4c(N5CCCCC6(CN(C(=O)n7cncn7)C6)C5)nc(OC[C@@]56CCCN5C[C@H](F)C6)nc4c3F)c12` [Compound A128, (6-(7-(8-ethynyl-7-fluoro-3-hydroxynaphthalen-1-yl)-8-fluoro-2-(((2R,7aS)-2-fluoro-tetrahydro-1H-pyrrolizin-7a(5H)-yl)methoxy)pyrido[4,3-d]pyrimidin-4-yl)-2,6-diaza-spiro[3.6]decan-2-yl)(1H-1,2,4-triazol-1-yl)methanone] as the molecule, how does the “ratio of IC50 against a G12D cell line” value (A549 cells) read?
A: greater than 1 fold

Q: And the “covalent labeling of K-Ras G12D” value [1]?
A: essentially no detectable labeling

Q: How did the “ratio of IC50 against a G12D cell line” value (A549 cells) turn out when `C#Cc1c(F)ccc2cc(O)cc(-c3ccc4c(N5CCCC6(CN(C(=O)n7cncn7)C6)C5)nc(OC[C@@]56CCCN5C[C@H](F)C6)nc4c3F)c12` [Compound A210, (6-(7-(8-ethynyl-7-fluoro-3-hydroxynaphthalen-1-yl)-8-fluoro-2-(((2R,7aS)-2-fluoro-tetrahydro-1H-pyrrolizin-7a(5H)-yl)methoxy)quinazolin-4-yl)-2,6-diazaspiro[3.5]nonan-2-yl)(1H-1,2,4-triazol-1-yl)-methanone] was run?
A: greater than 1 fold

Q: What about the “covalent labeling of K-Ras G12D” value [1] of the same molecule?
A: essentially no detectable labeling

Q: With `CC(=O)c1c(F)ccc2cc(O)cc(-c3ccc4c(N5CCCC6(CN(C(=O)n7cncn7)C6)C5)nc(OC[C@@]56CCCN5C[C@H](F)C6)nc4c3F)c12` [Compound A154, 1-(8-(4-(2-(1H-1,2,4-triazole-1-carbonyl)-2,6-diazaspiro[3.5]-nonan-6-yl)-8-fluoro-2-(((2R,7aS)-2-fluorotetrahydro-1H-pyrrolizin-7a(5H)-yl)meth-oxy)quinazolin-7-yl)-2-fluoro-6-hydroxynaphthalen-1-yl)-ethan-1-one] as the molecule, how does the “covalent labeling of K-Ras G12D” value [1] read?
A: essentially no detectable labeling

Q: `Cc1nc(C(C)C)nn1C(=O)N1CC2(CCCCN(c3nc(OC[C@@]45CCCN4C[C@H](F)C5)nc4c(F)c(-c5ccc(F)c6sc(N)c(C#N)c56)c(Cl)cc34)C2)C1` [Compound A305, 2-amino-4-(6-chloro-8-fluoro-2-(((2R,7aS)-2-fluorotetrahydro-1H-pyrrolizin-7a(5H)-yl)meth-oxy)-4-(2-(3-isopropyl-5-meth-yl-1H-1,2,4-triazole-1-carbon-yl)-2,6-diazaspiro[3.6]decan-6-yl)quinazolin-7-yl)-7-fluoro-benzo[b]thiophene-3-carbonitrile] was tested. Which “ratio of IC50 against a G12D cell line” value (A549 cells) did it give?
A: greater than 1 fold

Q: `C#Cc1c(F)ccc2cc(O)cc(-c3ncc4c(N5CCCC6(CN(C(=O)n7cncn7)C6)C5)nc(OC[C@@]56CCCN5C[C@H](F)C6)nc4c3F)c12` [Compound A133, (6-(7-(8-ethynyl-7-fluoro-3-hydroxynaphthalen-1-yl)-8-fluoro-2-(((2R,7aS)-2-fluoro-tetrahydro-1H-pyrrolizin-7a(5H)-yl)methoxy)pyrido[4,3-d]pyrimidin-4-yl)-2,6-diaza-aspiro[3.5]nonan-2-yl)(1H-1,2,4-triazol-1-yl)methanone] was tested. Which “covalent labeling of K-Ras G12D” value [1] did it give?
A: essentially no detectable labeling

Q: `C#Cc1c(F)ccc2cc(O)cc(-c3ncc4c(N5CCOCC6(CN(C(=O)n7cnc(C)n7)C6)C5)nc(OC[C@@]56CCCN5C[C@H](F)C6)nc4c3F)c12` [Compound A298, (9-(7-(8-ethynyl-7-fluoro-3-hydroxynaphthalen-1-yl)-8-fluoro-2-(((2R,7aS)-2-fluoro-tetrahydro-1H-pyrrolizin-7a(5H)-yl)methoxy)pyrido[4,3-d]pyrimidin-4-yl)-6-oxa-2,9-diazaspiro[3.6]decan-2-yl)(3-methyl-1H-1,2,4-triazol-1-yl)-methanone] was tested. Which “ratio of IC50 against a G12D cell line” value (A549 cells) did it give?
A: greater than 1 fold

Q: For `C#Cc1c(F)ccc2cc(O)cc(-c3ncc4c(N5CCOC6(CN(C(=O)n7cncn7)C6)C5)nc(OC[C@@]56CCCN5C[C@H](F)C6)nc4c3F)c12` [Compound A106, (8-(7-(8-ethynyl-7-fluoro-3-hydroxynaphthalen-1-yl)-8-fluoro-2-(((2R,7aS)-2-fluoro-tetrahydro-1H-pyrrolizin-7a(5H)-yl)methoxy)pyrido-[4,3-d]pyrimidin-4-yl)-5-oxa-2,8-diazaspiro[3.5]nonan-2-yl)(1H-1,2,4-triazol-1-yl)-methanone], which “covalent labeling of K-Ras G12D” value [1] is on record?
A: essentially no detectable labeling

Q: How did the “ratio of IC50 against a G12D cell line” value (A549 cells) turn out when `N#CCc1ncn(C(=O)N2CC3(C2)CN(c2nc(OC[C@@]45CCCN4C[C@H](F)C5)nc4c(F)c(-c5ccc(F)c6sc(N)c(C#N)c56)c(Cl)cc24)CCO3)n1` [Compound A110, 2-amino-4-(6-chloro-4-(2-(3-(cyanomethyl)-1H-1,2,4-triazole-1-carbonyl)-5-oxa-2,8-diazaspiro[3.5]nonan-8-yl)-8-fluoro-2-(((2R,7aS)-2-fluoro-tetrahydro-1H-pyrrolizin-7a(5H)-yl)methoxy)quinazolin-7-yl)-7-fluorobenzo[b]thio-phene-3-carbonitrile] was run?
A: greater than 1 fold

Reference: patent publication US20240368191A1, “HETEROCYCLIC COMPOUNDS AND USES THEREOF” (Kumquat Biosciences Inc., priority 2021, published 2024)
